Binding data for five molecules are collected here from PMC4226561.

These are yes or no findings as the source states them, for the method shown. For part of these data: Binding seen in cells or lysates may run through a third protein. Some binding calls cover weakened binding; strength is not graded here. Tags and fused reporters may be left off the sequences shown.

In assay [1] the target is T1, KORRIGAN1 (KOR1), complete protein (AA 1 to 621), MbYTH fusion (Arabidopsis thaliana) (UniProt Q38890).
T1 sequence: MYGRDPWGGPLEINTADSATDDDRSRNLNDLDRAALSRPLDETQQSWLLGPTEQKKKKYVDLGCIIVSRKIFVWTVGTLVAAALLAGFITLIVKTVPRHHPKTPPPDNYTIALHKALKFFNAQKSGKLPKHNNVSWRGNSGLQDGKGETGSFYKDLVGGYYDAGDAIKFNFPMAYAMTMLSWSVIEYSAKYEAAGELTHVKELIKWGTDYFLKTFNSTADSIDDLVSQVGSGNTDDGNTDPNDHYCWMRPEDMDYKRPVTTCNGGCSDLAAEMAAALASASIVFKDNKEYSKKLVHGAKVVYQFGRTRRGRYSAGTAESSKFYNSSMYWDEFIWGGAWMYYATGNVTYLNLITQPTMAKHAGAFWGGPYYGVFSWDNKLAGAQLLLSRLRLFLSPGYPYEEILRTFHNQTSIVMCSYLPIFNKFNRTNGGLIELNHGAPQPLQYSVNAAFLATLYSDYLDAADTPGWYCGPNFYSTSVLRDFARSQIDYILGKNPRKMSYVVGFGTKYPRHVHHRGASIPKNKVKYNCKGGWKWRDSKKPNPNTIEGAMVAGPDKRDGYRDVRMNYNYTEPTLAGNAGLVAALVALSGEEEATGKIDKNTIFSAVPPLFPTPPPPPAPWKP
Nature of the assay: two-hybrid; split-ubiquitin membrane-based yeast two-hybrid (MbYTH) in S. cerevisiae NMY51; bait fused to Cub-TF, prey to NubG; 100 colonies of each combination spotted on selective medium with 3-AT, 30°C, three days, grown spots counted; called 'in vitro' by the paper.

The target of assay [2] is T2, KOR1TMD, only the transmembrane domain of KOR1 (AA 70 to 94), MbYTH fusion (Arabidopsis thaliana) (UniProt Q38890).
T2 sequence: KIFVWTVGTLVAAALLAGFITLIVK
The assay is described as above.

The target in assay [3] is T3, KOR1C (AA 70 to 621), split-YFP (BiFC) fusion (Arabidopsis thaliana) (UniProt Q38890).
T3 sequence: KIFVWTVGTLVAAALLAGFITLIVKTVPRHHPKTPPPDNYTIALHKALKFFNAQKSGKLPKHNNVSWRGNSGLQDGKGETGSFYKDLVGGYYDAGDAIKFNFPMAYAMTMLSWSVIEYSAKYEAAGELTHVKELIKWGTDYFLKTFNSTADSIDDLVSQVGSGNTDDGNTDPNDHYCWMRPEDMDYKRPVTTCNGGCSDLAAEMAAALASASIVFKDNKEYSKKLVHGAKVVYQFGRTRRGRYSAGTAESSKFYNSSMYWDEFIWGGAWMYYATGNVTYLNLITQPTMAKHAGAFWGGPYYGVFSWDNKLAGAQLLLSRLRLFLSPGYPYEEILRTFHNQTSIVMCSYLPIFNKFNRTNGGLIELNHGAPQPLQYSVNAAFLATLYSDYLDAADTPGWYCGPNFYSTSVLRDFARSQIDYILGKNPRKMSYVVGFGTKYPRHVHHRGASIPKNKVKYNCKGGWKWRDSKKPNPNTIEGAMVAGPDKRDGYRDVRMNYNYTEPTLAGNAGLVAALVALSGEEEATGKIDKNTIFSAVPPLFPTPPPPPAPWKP
Nature of the assay: split reporter; BiFC: Y/N and Y/C fragments of YFP each linked to the N-terminus of the proteins, transiently expressed in leaves of 3-week-old N. benthamiana; YFP fluorescence by confocal microscopy 3 days after infiltration.

Assay [4] concerns the target KOR1N (AA 1 to 94), split-YFP (BiFC) fusion (Arabidopsis thaliana) (UniProt Q38890). The assay is described as above.

B1: KORRIGAN1 (KOR1), complete protein (AA 1 to 621), MbYTH fusion (protein, UniProt Q38890 1-621)
chain: MYGRDPWGGPLEINTADSATDDDRSRNLNDLDRAALSRPLDETQQSWLLGPTEQKKKKYVDLGCIIVSRKIFVWTVGTLVAAALLAGFITLIVKTVPRHHPKTPPPDNYTIALHKALKFFNAQKSGKLPKHNNVSWRGNSGLQDGKGETGSFYKDLVGGYYDAGDAIKFNFPMAYAMTMLSWSVIEYSAKYEAAGELTHVKELIKWGTDYFLKTFNSTADSIDDLVSQVGSGNTDDGNTDPNDHYCWMRPEDMDYKRPVTTCNGGCSDLAAEMAAALASASIVFKDNKEYSKKLVHGAKVVYQFGRTRRGRYSAGTAESSKFYNSSMYWDEFIWGGAWMYYATGNVTYLNLITQPTMAKHAGAFWGGPYYGVFSWDNKLAGAQLLLSRLRLFLSPGYPYEEILRTFHNQTSIVMCSYLPIFNKFNRTNGGLIELNHGAPQPLQYSVNAAFLATLYSDYLDAADTPGWYCGPNFYSTSVLRDFARSQIDYILGKNPRKMSYVVGFGTKYPRHVHHRGASIPKNKVKYNCKGGWKWRDSKKPNPNTIEGAMVAGPDKRDGYRDVRMNYNYTEPTLAGNAGLVAALVALSGEEEATGKIDKNTIFSAVPPLFPTPPPPPAPWKP
For the molecule B1, the binding result in assay [1] is “binds”.

B2: KOR1NOTMD, KOR1 without the transmembrane domain (AA 1 to 69+95 to 621), MbYTH prey (domain or fragment, UniProt Q38890)
chain: MYGRDPWGGPLEINTADSATDDDRSRNLNDLDRAALSRPLDETQQSWLLGPTEQKKKKYVDLGCIIVSRTVPRHHPKTPPPDNYTIALHKALKFFNAQKSGKLPKHNNVSWRGNSGLQDGKGETGSFYKDLVGGYYDAGDAIKFNFPMAYAMTMLSWSVIEYSAKYEAAGELTHVKELIKWGTDYFLKTFNSTADSIDDLVSQVGSGNTDDGNTDPNDHYCWMRPEDMDYKRPVTTCNGGCSDLAAEMAAALASASIVFKDNKEYSKKLVHGAKVVYQFGRTRRGRYSAGTAESSKFYNSSMYWDEFIWGGAWMYYATGNVTYLNLITQPTMAKHAGAFWGGPYYGVFSWDNKLAGAQLLLSRLRLFLSPGYPYEEILRTFHNQTSIVMCSYLPIFNKFNRTNGGLIELNHGAPQPLQYSVNAAFLATLYSDYLDAADTPGWYCGPNFYSTSVLRDFARSQIDYILGKNPRKMSYVVGFGTKYPRHVHHRGASIPKNKVKYNCKGGWKWRDSKKPNPNTIEGAMVAGPDKRDGYRDVRMNYNYTEPTLAGNAGLVAALVALSGEEEATGKIDKNTIFSAVPPLFPTPPPPPAPWKP
With B2, the binding entry in assay [2] was “no binding”.

B3: KOR1N (AA 1 to 94), split-YFP (BiFC) fusion (domain or fragment, UniProt Q38890 1-94)
chain: MYGRDPWGGPLEINTADSATDDDRSRNLNDLDRAALSRPLDETQQSWLLGPTEQKKKKYVDLGCIIVSRKIFVWTVGTLVAAALLAGFITLIVK
As to B3, the binding result is “binds weakly” in assay [3] and “binds” in assay [4].

B4: KOR1C (AA 70 to 621), split-YFP (BiFC) fusion (domain or fragment, UniProt Q38890 70-621)
chain: KIFVWTVGTLVAAALLAGFITLIVKTVPRHHPKTPPPDNYTIALHKALKFFNAQKSGKLPKHNNVSWRGNSGLQDGKGETGSFYKDLVGGYYDAGDAIKFNFPMAYAMTMLSWSVIEYSAKYEAAGELTHVKELIKWGTDYFLKTFNSTADSIDDLVSQVGSGNTDDGNTDPNDHYCWMRPEDMDYKRPVTTCNGGCSDLAAEMAAALASASIVFKDNKEYSKKLVHGAKVVYQFGRTRRGRYSAGTAESSKFYNSSMYWDEFIWGGAWMYYATGNVTYLNLITQPTMAKHAGAFWGGPYYGVFSWDNKLAGAQLLLSRLRLFLSPGYPYEEILRTFHNQTSIVMCSYLPIFNKFNRTNGGLIELNHGAPQPLQYSVNAAFLATLYSDYLDAADTPGWYCGPNFYSTSVLRDFARSQIDYILGKNPRKMSYVVGFGTKYPRHVHHRGASIPKNKVKYNCKGGWKWRDSKKPNPNTIEGAMVAGPDKRDGYRDVRMNYNYTEPTLAGNAGLVAALVALSGEEEATGKIDKNTIFSAVPPLFPTPPPPPAPWKP
B4: the binding entry in assay [3] is “binds”.
With KIFVWTVGTLVAAALLAGFITLIVK (domain or fragment, UniProt Q38890 70-94) [KOR1TMD, only the transmembrane domain of KOR1 (AA 70 to 94), MbYTH fusion], the binding result in assay [2] is reported as “binds”.
